According to PMC9769115:
These are yes or no findings as the source states them, for the method shown.

By UniProt entry, the sequences of proteins in these tests, tags left out.
UniProt P0ACD4: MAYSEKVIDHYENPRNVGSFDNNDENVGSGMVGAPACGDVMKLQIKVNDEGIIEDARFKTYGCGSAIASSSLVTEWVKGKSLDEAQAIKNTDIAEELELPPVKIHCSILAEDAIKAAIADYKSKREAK

Target: IscU, Fe-S cluster scaffold protein (E. coli) (E. coli) (UniProt P0ACD4)
Assay: native MS; Zn2+-IscU (100% Zn2+) alone, 200 mM ammonium formate pH 8.0; both purified

## IscU, Fe-S cluster scaffold protein (E. coli) (from UniProt P0ACD4 1-128)
  binding: no binding (condition: with Zn2+ bound to IscU)
